From patent US20200123268A1 (UNIVERSIT DEGLI STUDI MAGNA GRAECIA CATANZARO, published 2020)
No constants are given. Whether binding was seen depends on the method and setting. Some entries that bind do so weakly or less than the wild type. Blank lines part the entries; values can stand above or below the binder they belong to.

Target: T1, human CD43, endogenous, on primary cells and cell lines that carry the UMG1 epitope (human) (UniProt P16150)
T1 sequence (chain, native glycosylation of the cell concerned): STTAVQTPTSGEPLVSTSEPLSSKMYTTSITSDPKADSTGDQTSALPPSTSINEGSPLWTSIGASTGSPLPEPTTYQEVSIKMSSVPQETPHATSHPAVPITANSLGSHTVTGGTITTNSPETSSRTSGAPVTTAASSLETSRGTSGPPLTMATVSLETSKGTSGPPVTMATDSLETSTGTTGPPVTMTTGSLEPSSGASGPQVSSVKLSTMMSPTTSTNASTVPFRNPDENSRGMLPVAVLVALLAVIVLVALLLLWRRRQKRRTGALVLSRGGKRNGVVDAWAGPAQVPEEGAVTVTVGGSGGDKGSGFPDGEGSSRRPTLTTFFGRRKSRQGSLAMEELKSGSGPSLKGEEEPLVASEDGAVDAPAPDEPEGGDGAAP
Assay: flow cytometry, antibody at 1 ug/ml, FITC mouse anti-human IgG secondary; histogram grid, cell line not labelled (HPB-ALL or H9)

binding: binds
B1: H1CL (antibody, V domains shown)
VH: EVQLVESGGGLVQPGGSLRLSCAASGFTFSSFGMHWVRQAPGKGLEWVSYISSGSGNFYYVDTVKGRFTISRDNAKNSLYLQMNSLRAEDTAVYYCARSTYYHGSRGAMDYWGQGTLVTVSS
VL: QIALTQSPAIMSASPGEKVTMTCSASSSVSSMYWYQLKPGSSPRLLIYDTSKMASGVPIRFSGSGSGTSFSLTVSRVEAEDAATYYCQQWSSYPPITFGAGSKLELK

binding: binds
B2: CHL1 (antibody, V domains shown)
VH: DVQLVESGGGLVQPGGSRKLSCVASGFTFSSFGMHWVRQAPEKGLEWVAYISSGSGNFYYVDTVKGRFTISRDNPKNTLFLQMTSLRSEDTAMYYCARSTYYHGSRGAMDYWGQGTSVTVSS
VL: EIVLTQSPATLSLSPGERATLSCSASSSVSSMYWYQQKPGLAPRLLIYDTSKMASGIPDRFSGSGSGTDFTLTISRLEPEDFAVYYCQQWSSYPPITFGQGTRLEIK
